Reference: PubChem BioAssay AID493014 (National Center for Advancing Translational Sciences (NCATS), 2011)
About 170 (0.05%) of roughly 340,000 compounds were called active. The inconclusive results got no clear call from the source; some entries with a clear call stand among them for comparison. Calls follow the shape of the dose curve; as a rule, active = well fitted inhibition curve with a large enough effect in the signal ratio, with a control signal flat (not every such curve was filed as active); inconclusive = small, poorly fitted or top-dose-only effect, or effect the other way, or a change in a side signal; inactive = flat fitted curve, though single readings scatter; the % refers to the signal ratio. Where the call is inconclusive, the potency comes from a doubtful curve fit.
Potency is read from the fitted curve at half-maximal effect.

Test: qHTS Assay to Find Inhibitors of Chronic Active B-Cell Receptor Signaling;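 as to activity change, negative = inhibition: plate controls were basal doxycycline-induced cells for no effect and cells given 10 µM MG132 for full effect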
Conditions: ABC-DLBCL IkBa-CBG/CBR reporter, luminescence ratio (green luciferase fused to IkBa over red control in TMD8 lymphoma cells), 4 h; activity change, negative = inhibition: at 46.1 µM (top of the series)
Procedure, shortened: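 TMD8 ABC-DLBCL cells carrying doxycycline-inducible green luciferase fused to IkappaBalpha plus unfused red luciferase were exposed to compounds (up to 46 uM) for 4 hrs at 37C. Activity came from the overlap-corrected green/red luminescence ratio.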
In the case of `CCOC(=O)C1CCN(Cc2nnc(-c3ccccc3C)o2)CC1`, the activity change, negative = inhibition is reported as inconclusive: 3.06%. For `Cc1ccc(/C=N/NC(=O)Cc2cccn2C)s1`, the activity change, negative = inhibition was inconclusive: 1.33%. In the case of `Cc1ccc(Cl)cc1Nc1nc(-c2sc(NC(=O)c3ccco3)nc2C)cs1`, the Potency is reported as inconclusive: 4.47 µM [falling, single point]. For `O=C(NC(=S)Nc1ccc2oc(=O)ccc2c1)c1ccccc1F`, the activity change, negative = inhibition was inconclusive: -22.2%. For `CCOC(=O)c1nnn(CC(=O)Nc2ccccc2)c1C(=O)OCC`, the Potency was inconclusive: 20 µM [falling, partial curve, poor fit]. With `COc1ccccc1Nc1nc(-c2sc(NC(=O)c3cccc(Cl)c3)nc2C)cs1` the Potency was inconclusive: 11.2 µM [falling, partial curve, poor fit]. With `CCNC(=O)C1CC(=O)OC12CCCCC2` (configuration not stated) the activity change, negative = inhibition was inconclusive: 277%. In the case of `COc1ccc(CNC(=O)C(C)Sc2ccc(S(=O)(=O)N3CCOCC3)cn2)cc1` (configuration not stated), the “activity change, negative = inhibition” value is reported as inactive: -0.739%. With `Oc1cccc(-c2nc3ccc4ccccc4c3c3c2CCC3)c1` the Potency was inconclusive: 14.6 µM [rising, single point]. For `COc1ccc(C)cc1NC(=O)COC(=O)c1ccc([N+](=O)[O-])o1`, the “activity change, negative = inhibition” value was inactive: 3.99%. With `CCCCN=c1scc(-c2ccc3c(c2)NC(=O)CO3)n1N=C1CCCC1` the “activity change, negative = inhibition” value was inactive: 0.604%. In the case of `CCCC(=O)c1cc2ccccc2oc1=O`, the “activity change, negative = inhibition” value is reported as inactive: -2.28%. With `Cc1sc(NC(=O)c2ccco2)c(C(Nc2ccccn2)c2ccccc2)c1C` (configuration not stated) the activity change, negative = inhibition was inconclusive: -13.4%. In the case of `COc1cccc(C2CC(c3cccs3)=NN2S(C)(=O)=O)c1OC` (configuration not stated), the activity change, negative = inhibition is reported as inconclusive: 8.82%. In the case of `Cc1nnc(Sc2c(N)n(C)c(=O)n(C)c2=O)s1`, the activity change, negative = inhibition is reported as inconclusive: -11.5%. In the case of `CSCC(C)N1CCC(Oc2cccc(C(=O)NCc3ccccn3)c2)CC1` (configuration not stated), the “activity change, negative = inhibition” value is reported as inactive: -1.23%. In the case of `COc1ccc(NC(=O)CN(C)C(=O)c2ccc(NS(=O)(=O)c3ccc(C)c([N+](=O)[O-])c3)cc2)cc1`, the activity change, negative = inhibition is reported as inconclusive: -6.28%. For `COc1ccccc1NCC(=O)NNCC(=O)Nc1ccc(F)c(Cl)c1`, the Potency was inconclusive: 2.82 µM [rising, partial curve]. With `Cc1nc2ccccn2c1C(=O)NCc1ccc2c(c1)OCO2` the activity change, negative = inhibition was inconclusive: -1.57%. For `O=C(Nc1nnc(C2CC2)s1)C1Cc2ccccc2CN1S(=O)(=O)c1ccccc1F` (configuration not stated), the activity change, negative = inhibition was inconclusive: -13.3%. With `CCOC(=O)/C=C/C(=O)Nc1ccc(S(=O)(=O)N2CCCCCC2)cc1` the activity change, negative = inhibition was inconclusive: -20%. In the case of `O=C(NCC1CCCO1)C(=O)c1c[nH]c2ccccc12` (configuration not stated), the Potency is reported as inconclusive: 5.62 µM [rising, single point]. With `COCCNC(=S)N1CCN(c2cccc(C(F)(F)F)c2)CC1` the “activity change, negative = inhibition” value was inactive: 7.04%. For `CC1(C)Cc2cccc(OCC(=O)Nc3cccnc3Cl)c2O1`, the activity change, negative = inhibition was inconclusive: 8.11%. In the case of `CCC(=O)N1CCc2cc(S(=O)(=O)CCC(=O)NCc3cccs3)ccc21`, the activity change, negative = inhibition is reported as inconclusive: -15.8%. With `CCC(C)[C@H]1CNCCN1CCc1cc(C(F)(F)F)cc(C(F)(F)F)c1` (some centres not stated) the activity change, negative = inhibition was inconclusive: 27.2%. In the case of `C=CCNc1nc(S(=O)Cc2ccc(C)cc2)nc2c1CCCC2` (configuration not stated), the activity change, negative = inhibition is reported as inconclusive: -12.9%. For `CN(CCOc1ccc(Br)cc1)CC(O)COc1ccc(C#N)cc1` (configuration not stated), the “activity change, negative = inhibition” value was inactive: 0.967%. With `O=C1OC(c2ccc(Br)cc2)=N/C1=C\N1CCCCC1` the “activity change, negative = inhibition” value was inactive: 1.89%. With `CCOc1cc(-c2noc(CCCC(N)=O)n2)cc(Br)c1OC` the Potency was inconclusive: 17.8 µM [falling, partial curve]. For `COc1ccc(N2C(S)=C(C#N)C(=O)NC2c2ccco2)cc1` (configuration not stated), the Potency was inconclusive: 32.6 µM [falling, partial curve, poor fit]. For `CC(C(=O)N1CCc2ccccc21)N(C)CC(=O)Nc1ccccc1Cl` (configuration not stated), the activity change, negative = inhibition was inconclusive: 2.29%. For `CCCn1c(SCC(=O)NCc2ccco2)nc2c1c(=O)n(C)c(=O)n2C`, the Potency was inconclusive: 18.4 µM [rising, partial curve, poor fit]. With `CCOC(=O)NNc1ccc2nonc2c1[N+](=O)[O-]` the activity change, negative = inhibition was inconclusive: 16.1%. For `CN(CC(=O)Nc1ccccc1Cl)C(=O)COC(=O)Cc1ccc(F)cc1`, the activity change, negative = inhibition was inconclusive: 5.86%. With `Cc1[nH]c2ccccc2c1/C=N/Nc1cccc(C(=O)O)c1` the Potency was inconclusive: 7.08 µM [falling, partial curve]. For `O=C1CCc2nc3ccccc3c(=O)n2N1`, the activity change, negative = inhibition was inconclusive: -8.58%. With `O=C(Cn1c(NCCCO)nc2ccccc21)c1ccc([N+](=O)[O-])cc1` the “activity change, negative = inhibition” value was inactive: -1.25%. With `CC1CCN(C2=C(NS(=O)(=O)c3ccc(Br)cc3)C(=O)c3ccccc3C2=O)CC1` the Potency was inconclusive: 10 µM [rising, partial curve, poor fit]. In the case of `C=CC(C)(C)c1[nH]cnc1/C=C1\NC(=O)C(C(C)C)NC1=O` (configuration not stated), the “activity change, negative = inhibition” value is reported as inactive: -4.51%. For `COc1ccc(-c2cn3nc(N4CCC(C(=O)Nc5cccc(Cl)c5)CC4)sc3n2)cc1`, the “activity change, negative = inhibition” value was inactive: -4.37%. In the case of `Cc1nn(-c2ccccn2)c2c1-c1nc(N)ncc1CC2`, the “activity change, negative = inhibition” value is reported as inactive: -1.18%.
